A short description of this experiment: qHTS Assay to Find Inhibitors of Chronic Active B-Cell Receptor Signaling. The settings on record: ABC-DLBCL IkBa-CBG/CBR reporter, luminescence ratio (green luciferase fused to IkBa over red control in TMD8 lymphoma cells), 4 h. In outline: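 Cell line TMD8 (human ABC DLBCL), stably expressing tet-inducible CBG68-IkBa fusion and CBR; IMDM/0.5% FBS; cpd up to 46 uM; dox induction, 4 h, 37C/5% CO2; dual luminescence; green/red ratio; MG132 control.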
(In general: In qHTS, concentration-response curves come from the screen itself.)

[1] abbreviates: measured here: CBR red luminescence, cell number.
[2] abbreviates: measured here: IkBa-CBG green luminescence.

The text below walks through data of PubChem BioAssay AID493014 (National Center for Advancing Translational Sciences (NCATS), 2011).

Structures are written as SMILES. The list shows a part of the results. Shown are side measurements of this screen, not its main read-out; they come without a call. The list favours compounds with an active or inconclusive main result. Words in brackets tell the shape of the fitted curve; partial curves, single points and poor fits give uncertain potencies.

For orientation: AC50 means the concentration giving half of the maximal activity seen. With `CC(=O)Nc1ccc(Nc2cc(N3CCOCC3)c3nonc3c2[N+](=O)[O-])cc1`, the half-maximal activity concentration (AC50) under setting [1] is 6.31 µM [falling, single point].
On the same count and under the same terms, the value for `CCN(CC)C(=O)C1CCCN(C(=O)Nc2ccccc2)C1` (stereo not given) was 0.164 µM [falling, full curve, poor fit].
For `NC(=O)c1ccc(-c2nnn(CC(=O)N(C3CCCC3)C3CCS(=O)(=O)C3)n2)cc1` (stereo not given), the AC50 under setting [1] was 6.51 µM [falling, partial curve].
Take `O=C(CSc1ccc([N+](=O)[O-])cn1)Nc1cc(C(F)(F)F)ccc1N1CCOCC1`: the AC50 under setting [1] is 11.2 µM [falling, partial curve, poor fit].
Consider `CCOC(=O)N(C)c1ccc(C(O)(C(F)(F)F)C(F)(F)F)cc1`, for which the AC50 under setting [1] was 0.58 µM [rising, full curve, poor fit].
On the same count and under the same terms, the value for `COc1ccccc1N1CCN(C(=O)c2cccc3c(=O)c(C)c(-c4ccccc4)oc23)CC1` was 23.1 µM [falling, partial curve, poor fit]; that for `CCOC(=O)N1CCN(C(=O)c2c[nH]c3ccc(S(=O)(=O)N(C)c4ccc(F)cc4)cc3c2=O)CC1` was 6.31 µM [rising, single point].
On the same count and under the same terms, the value for `Cc1ccccc1NC(=O)c1sc(NC(=O)C2CC2)nc1C` was 35.5 µM [rising, single point].
Turning to `O=C(/C=N/NC(=O)c1ccc(Cl)cc1Cl)c1ccccc1`, under setting [1], the AC50 is 0.316 µM [rising, full curve, poor fit].
In the case of `COc1ccc(Nc2oc(-c3ccco3)nc2S(=O)(=O)c2ccc(F)cc2)cc1`, under setting [1], the AC50 is 6.51 µM [rising, single point].
As for `CN(c1ccccc1C(=O)Nc1ccc2c(c1)n(C)c(=O)n2C)S(C)(=O)=O`, under setting [1], the AC50 was 35.5 µM [rising, single point].
Take `CCOC(=O)C1=C(c2ccccc2)NC(SC)=C(C#N)C1c1ccco1` (stereo not given): under setting [1], the concentration at half-maximal activity (AC50) was 14.1 µM [falling, single point].
In the case of `CCC(C)(C)C1CCC(=NNC(=S)Nc2ccccc2)CC1` (stereo not given), under setting [1], the AC50 is 14.1 µM [falling, partial curve, poor fit].
With `COc1ccc(C=NNC(=O)c2ccccc2OCc2ccc(F)cc2)c(OC)c1`, the half-maximal activity concentration (AC50) under setting [1] is 0.517 µM [falling, full curve, poor fit].
Take `CCOc1ccccc1CNC(=O)c1cc2oc3ccccc3c2n1C`: the half-maximal activity concentration (AC50) under setting [1] was 0.13 µM [rising, full curve, poor fit].
Turning to `NC(=O)c1cc(NC(=O)COC(=O)CCCN2C(=O)c3cccc4cccc(c34)C2=O)cc(C(N)=O)c1`, the concentration at half-maximal activity (AC50) under setting [1] was 3.26 µM [rising, partial curve, poor fit].
On the same count and under the same terms, the value for `Cc1nc(NC(=O)CCc2ccccc2)sc1C` was 10 µM [falling, partial curve, poor fit]; that for `COc1ccc(C(=O)NCCn2cc(SCC(=O)NCC3CCCO3)c3ccccc32)cc1OC` (stereo not given) was 14.1 µM [falling, partial curve, poor fit].
`Cc1cc(OCCCCCNCCO)ccc1Cl`: the AC50 is, setting by setting: under setting [1], 29.1 µM [falling, single point]; under setting [2], 23.1 µM [rising, partial curve, poor fit].
As to `CCOc1cc(N2CCOCC2)c(OCC)cc1NC(=O)CN1C(=O)NC2(CCc3ccccc32)C1=O` (stereo not given), the half-maximal activity concentration (AC50) under setting [1] is 29.1 µM [rising, single point].
Take `O=C(O)c1c(NC(=O)N2CCCC2)sc2c1CCCC2`: the half-maximal activity concentration (AC50) under setting [1] was 8.91 µM [falling, partial curve, poor fit].
`CCOC(=O)c1cc(CC)sc1NC(=O)CCC(=O)O`: the half-maximal activity concentration (AC50) under setting [1] was 23.1 µM [falling, single point].
As to `CC(C)COn1c(=S)[nH]c2ccccc2c1=O`, under setting [1], the concentration at half-maximal activity (AC50) is 5.62 µM [rising, single point].
For `CCOc1ccc(C(=O)NCC(=O)NC(C)c2ccc(-n3ccnc3)cc2)cc1OCC` (stereo not given), under setting [1], the AC50 was 1.78 µM [rising, partial curve, poor fit].
For the compound `CCc1sc(NC(C)=O)nc1-c1ccccc1`, the AC50 under setting [2] is 0.631 µM [rising, partial curve, poor fit].
As to `Cc1ccc(-n2ncc3c2CCCC3NC(=O)CCCN2CCCC2=O)cc1C` (stereo not given), the AC50 under setting [1] was 20 µM [rising, single point].
Same read-out and setting: the value for `CC1(C)CC(=O)C=C(NCCN2CCN(C(=O)Nc3ccc(Cl)c(Cl)c3)CC2)C1` was 6.51 µM [rising, single point]; that for `O=C(NCCCN1CCCC1)c1ccc(Cn2c(=S)[nH]c3ccc(Br)cc3c2=O)cc1` was 10 µM [falling, partial curve, poor fit]; that for `O=CN/C=C/c1cc(O)ccc1O` was 35.5 µM [falling, single point].
As to `Cc1occc1C(=O)NNC(=O)Nc1ccc(Cl)c(Cl)c1`, the concentration at half-maximal activity (AC50) under setting [1] was 16.4 µM [falling, single point].
Still for that read-out and setting: the value for `O=C(/C=C/c1ccccc1[N+](=O)[O-])c1ccccc1Br` was 35.5 µM [falling, single point]; that for `O=[N+]([O-])c1cccc(C2(O)COc3ccccc3O2)c1` (stereo not given) was 3.16 µM [rising, full curve, poor fit]; that for `Cc1cc(N/N=C/c2ccc(F)cc2)nc(-n2nc(C)cc2C)n1` was 1.26 µM [falling, full curve, poor fit].
For `OC(CN1C2=NCCCN2c2ccccc21)c1ccc2c(c1)OCO2` (stereo not given), the AC50 under setting [1] is 25.1 µM [falling, single point].
As to `Cc1[nH]nc(SCC(=O)NC2CCCC2)c1[N+](=O)[O-]`, under setting [1], the AC50 was 20 µM [falling, single point].
Still for that read-out and setting: the value for `Cc1ccc2nc(Cl)c(C3CC(c4ccco4)=NN3C(=O)CCCC(=O)O)cc2c1` (stereo not given) was 7.94 µM [rising, partial curve, poor fit].
Take `Oc1ccc(-c2n[nH]c(=S)n2-c2ccc3c(c2)OCCO3)c(O)c1`: the concentration at half-maximal activity (AC50) reads like this: under setting [1], 20.6 µM [falling, partial curve]; under setting [2], 16.4 µM [falling, partial curve, poor fit].
Regarding `Cc1[nH][nH]c(=O)c1C(c1c(C)[nH][nH]c1=O)c1cn(Cc2ccc(F)cc2)c2ccccc12`, under setting [2], the half-maximal activity concentration (AC50) was 29.1 µM [falling, partial curve, poor fit].
In the case of `O=C(NNC(=O)c1cc2ccccc2o1)c1ccncc1`, under setting [1], the AC50 was 5.8 µM [falling, partial curve].
`C=CCOC(=O)C1=C(C)NC(SCC)=C(C#N)C1c1ccc(Cl)cc1` (stereo not given): the AC50 under setting [1] was 12.6 µM [falling, partial curve, poor fit].
For the compound `COc1ccc(C(=O)[C@@H]2CC[C@](C)(C(=O)O)C2(C)C)cc1`, the AC50 under setting [1] was 16.4 µM [rising, single point].
Consider `CCNS(=O)(=O)c1ccc(CCC(N)=O)cc1`, for which, under setting [1], the half-maximal activity concentration (AC50) is 20 µM [rising, single point].
On the same count and under the same terms, the value for `COc1ccc(Cl)cc1NC(=O)CN(C)C(=O)c1ccc(OCc2ccccc2)c(OC)c1` was 29.1 µM [falling, single point]; that for `O=C(Nc1ccc(Br)c2cccnc12)c1ccc(Cn2cc([N+](=O)[O-])cn2)o1` was 6.51 µM [falling, single point].
`N#Cc1sc2nc(C3CC3)cc(-c3ccc(Cl)cc3)c2c1N`: under setting [1], the AC50 was 29.1 µM [rising, single point].
For the compound `CC(C)(C)c1cc[n+](/C(C(=S)Nc2ccccc2F)=C(/[O-])c2ccc3c(c2)OCCO3)cc1`, the AC50 under setting [1] was 22.4 µM [falling, partial curve, poor fit].
The same measure, in the same setting: the value for `COc1c(Cl)cc(Cl)cc1CNCc1ccccc1` was 8.91 µM [rising, partial curve, poor fit].
Consider `COc1ccc(C2Nc3ccccc3-c3cc(C)nn32)cc1OC` (stereo not given), for which the concentration at half-maximal activity (AC50) under setting [1] is 6.31 µM [rising, single point].
For the compound `CCOC(=O)CCCSc1nc2sc(C)c(C)c2c(=O)[nH]1`, the AC50 under setting [1] was 0.461 µM [falling, full curve].
Still for that read-out and setting: the value for `Cc1ccc(N2CCN(/N=C/c3sccc3C)CC2)cc1` was 2.31 µM [rising, single point]; that for `CC(C)(C)c1ccc(OCc2ccc(C(=O)NN)o2)cc1` was 3.16 µM [falling, full curve]; that for `O=C(N/N=C/c1cn(-c2cccs2)nc1-c1ccccc1)c1ccccc1O` was 23.1 µM [falling, partial curve].
Still for that read-out and setting: the value for `Cc1noc(C)c1CSc1ccc(Br)cc1` was 10 µM [rising, partial curve, poor fit].
For `CCc1cccc(C)c1NC(=O)C1CN(S(=O)(=O)c2ccccc2)CCN1S(=O)(=O)c1ccccc1` (stereo not given), the concentration at half-maximal activity (AC50) is 32.6 µM [falling, single point] under setting [1] and 25.9 µM [rising, partial curve, poor fit] under setting [2].
Take `COc1ccc2c(c1)OC[C@H]1[C@H]2N2C(=O)CN(Cc3ccc(F)cc3)C(=O)[C@@]2(C)[C@H]1c1ccccc1`: the half-maximal activity concentration (AC50) under setting [1] is 25.9 µM [falling, single point].
Turning to `COc1ccc(CCC(=O)OCC(=O)Nc2sccc2C(N)=O)cc1OC`, the AC50 under setting [1] was 3.66 µM [falling, partial curve, poor fit].
In the case of `COc1ccc(NC(=O)N(Cc2cc3cc(OC)c(OC)cc3[nH]c2=O)CC2CCCO2)cc1` (stereo not given), the concentration at half-maximal activity (AC50) under setting [1] is 0.631 µM [rising, partial curve, poor fit].
Regarding `CC(=O)Nc1ccc(Oc2cncc(Cl)c2)nc1`, the half-maximal activity concentration (AC50) under setting [1] is 35.5 µM [rising, single point].
Same read-out and setting: the value for `O=C(CCC(=O)Nc1cccc2ccccc12)N/N=C/c1ccco1` was 1.46 µM [rising, full curve]; that for `N#CCCCC#Cc1ccc2c(c1)COc1c3ccccc3nn1-2` was 0.326 µM [rising, full curve, poor fit]; that for `COc1ccc(CCNC(=O)C(=O)NCC2OCCN2S(=O)(=O)c2cc(F)ccc2F)cc1OC` (stereo not given) was 35.5 µM [rising, single point].
For the compound `COc1cc2ccccc2cc1C(=O)Nc1ccccc1N1CCCC1`, the concentration at half-maximal activity (AC50) under setting [1] was 7.31 µM [falling, partial curve].
